We go through 40 molecules from PubChem BioAssay AID493014 (National Center for Advancing Translational Sciences (NCATS), 2011).

This experiment is described as follows: qHTS Assay to Find Inhibitors of Chronic Active B-Cell Receptor Signaling. To be noted: ABC-DLBCL IkBa-CBG/CBR reporter, luminescence ratio (green luciferase fused to IkBa over red control in TMD8 lymphoma cells), 4 h. The procedure, abridged: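 Cell line TMD8 (human ABC DLBCL), stably expressing tet-inducible CBG68-IkBa fusion and CBR; IMDM/0.5% FBS; cpd up to 46 uM; dox induction, 4 h, 37C/5% CO2; dual luminescence; green/red ratio; MG132 control.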
Background: qHTS replaces the single test concentration by a dilution series.

Where [1] appears, read: measured here: CBR red luminescence, cell number.
[2] abbreviates: measured here: IkBa-CBG green luminescence.

Some of the results follow. Further columns of the screen follow, without active or inactive calls. The list favours compounds with an active or inconclusive main result. The note in brackets gives the kind of curve behind each potency; many fits are weak.

As usually defined, the AC50 is the concentration giving half of the maximal activity seen.

In the case of `CCn1ncc(Br)c1C(=O)Nc1ccc(C(=O)OC(C)C)cc1`, the half-maximal activity concentration (AC50) under setting [1] was 0.0461 µM [rising, full curve, poor fit]. For `CC1(C)CC(=O)C=C(NC2=CC3OC(c4ccccc4)OCC3OC2=O)C1` (centres undefined), the AC50 was 7.31 µM [falling, partial curve] under setting [1] and 4.61 µM [rising, full curve, poor fit] under setting [2]. As for `Cc1cccc(-c2nc3cc([N+](=O)[O-])ccc3o2)c1`, under setting [1], the AC50 was 0.398 µM [rising, full curve, poor fit]. As for `CN(C)CCCN(C(=O)c1cc(-c2cccs2)nc2ccccc12)c1nc2ccc(F)cc2s1`, the concentration at half-maximal activity (AC50) under setting [1] is 35.5 µM [falling, single point]. Consider `CC1CCc2c(sc3nc(CN4CCOCC4)nc(Sc4ccccc4)c23)C1` (centres undefined), for which, under setting [1], the AC50 is 16.4 µM [rising, partial curve, poor fit]. Still for that read-out and setting: for `O=C(/C=C/c1cnc2ccccc2n1)NC1CCCCCC1` the value was 8.2 µM [falling, partial curve]; for `CC1CCCN(C(c2cccs2)c2nnnn2Cc2ccccc2)C1` (centres undefined), 18.4 µM [falling, single point]. `CCOc1ccccc1C=Nc1ccccc1C(=O)Nc1ccccc1`: under setting [1], the AC50 is 29.1 µM [falling, single point]. `COc1cc2c(c(OC)c1OC)-c1ccc(OC)c(=O)cc1C(NC(C)=O)CC2` (centres undefined): the AC50 reads like this: under setting [1], 0.355 µM [rising, full curve, poor fit]; under setting [2], 0.251 µM [falling, full curve, poor fit]. Turning to `Cc1cc(=O)oc2cc(N3C(=O)CC(Cc4ccccc4)C3=O)ccc12` (centres undefined), under setting [1], the AC50 was 5.01 µM [rising, partial curve].

Take `O=C(Nc1ccc(-c2nc3cccnc3s2)cc1)C1CCCO1` (centres undefined): the AC50 under setting [1] is 23.1 µM [falling, partial curve]. As to `COc1ccc(N=C2NC(=O)S/C2=C\c2ccc(N(C)C)cc2)cc1`, the AC50 under setting [1] was 3.16 µM [rising, full curve, poor fit]. Still for that read-out and setting: the result for `Cc1c(C)c2ccc(OCC(=O)N3CCOCC3)c(C)c2oc1=O` reads 35.5 µM [falling, single point]; that for `Cc1cccc(CC(=O)NCCS(=O)(=O)N2CCN(c3cccc(Cl)c3)CC2)c1`, 25.9 µM [falling, single point]; that for `Cc1cc(C(=S)N2CCOCC2)c(C)n1-c1ccc(Cl)cc1`, 29.1 µM [falling, single point]. For the molecule `Cc1ccc(S(=O)(=O)CC(=O)Nc2nc3c(C)cccc3s2)cc1`, the concentration at half-maximal activity (AC50) under setting [1] is 35.5 µM [falling, single point] and the AC50 under setting [2] is 15.8 µM [rising, partial curve, poor fit]. For the molecule `COc1cccc(NC(=O)NC2(C(=O)N3CCC(O)CC3)CCCCC2)c1`, under setting [1], the concentration at half-maximal activity (AC50) was 12.6 µM [falling, partial curve, poor fit]. `COc1cccc(NC(=O)c2cc(Cl)nnc2Cl)c1`: the concentration at half-maximal activity (AC50) under setting [1] is 15.8 µM [falling, single point].

`COc1cccc(NC(=O)C(c2ccccc2)N2CCNC(=O)C2)c1` (centres undefined): the concentration at half-maximal activity (AC50) under setting [1] was 7.08 µM [rising, partial curve]. With `COc1ccc(C(=O)OC(C)CN2CCOCC2)cc1` (centres undefined), under setting [1], the concentration at half-maximal activity (AC50) is 5.62 µM [rising, single point]. The same measure, in the same setting: the result for `CCOc1cc(CNCCCN2CCOCC2)cc(Br)c1OCC(=O)Nc1cccc(C(F)(F)F)c1` reads 14.1 µM [falling, single point]. Take `COc1cc2c(cc1OC)/C(=C/C#N)NC(C)(C)C2`: the half-maximal activity concentration (AC50) is, setting by setting: under setting [1], 0.891 µM [rising, full curve]; under setting [2], 2.51 µM [falling, partial curve, poor fit]. Take `Cc1ccc2nc3sc(C(=O)Nc4ccc(N5CCOCC5)cc4)c(N)c3cc2c1`: the half-maximal activity concentration (AC50) under setting [1] is 8.2 µM [falling, partial curve, poor fit]. Take `O=C(CN1CCc2cc3c(cc2C1)OCCCO3)Nc1cccc([N+](=O)[O-])c1`: the AC50 under setting [1] was 7.94 µM [falling, partial curve, poor fit]. With `O=C(CCCN1C(=O)/C(=C/c2ccccc2Cl)SC1=S)Nc1ccccn1`, the AC50 under setting [1] is 2.59 µM [falling, full curve]. The same measure, in the same setting: the result for `CC(=O)c1ccc(C(=O)N2CCCC(CO)(Cc3ccccc3C)C2)s1` (centres undefined) reads 5.62 µM [rising, single point]; that for `O=C(Nc1ncn[nH]1)c1ccc(Cl)cc1Cl`, 6.31 µM [rising, single point]; that for `CC(NC(=O)c1ccccc1)C(=O)OCC(=O)N1c2ccccc2Sc2ccccc21` (centres undefined), 0.731 µM [rising, full curve, poor fit].

Regarding `Cc1[nH]c2ccc(C(=O)Nc3ccncc3)cc2c1C`, under setting [1], the AC50 is 35.5 µM [falling, single point]. As to `CCCSc1ncc(Cl)c(C(=O)Nc2ccc(S(=O)(=O)N3CC(C)OC(C)C3)cc2)n1` (centres undefined), the AC50 under setting [1] is 7.31 µM [falling, partial curve].

In the case of `Cc1ccn2c(CNCC3COCCO3)c(C(=O)N3CCCCCC3)nc2c1` (centres undefined), under setting [1], the half-maximal activity concentration (AC50) is 3.55 µM [rising, full curve, poor fit]. Still for that read-out and setting: the result for `CCc1ccc(NC(=O)c2ccc3ncsc3c2)cc1` reads 8.91 µM [falling, partial curve]. Turning to `CSCC[C@H](NC(=O)c1cc([N+](=O)[O-])ccc1Cl)c1nc2ccccc2[nH]1`, the AC50 under setting [1] is 20.6 µM [falling, single point]. On the same count and under the same terms, for `Cc1cc(C)nc(SCc2ccc([N+](=O)[O-])cc2)n1` the value was 4.47 µM [rising, full curve, poor fit]. With `CCOC(=O)c1c(O)c2ccccc2oc1=O`, the concentration at half-maximal activity (AC50) under setting [1] is 4.47 µM [falling, full curve, poor fit].

Turning to `Cc1cc(NC(=O)C2CCN(S(=O)(=O)c3cccs3)CC2)no1`, under setting [1], the half-maximal activity concentration (AC50) was 10 µM [falling, partial curve, poor fit]. Still for that read-out and setting: the result for `O=C(CNC(=O)c1cccc(F)c1)OCC(=O)N1CCCc2ccccc21` reads 8.2 µM [rising, partial curve]; that for `O=C(Nc1nc2ccccc2s1)c1ccc(OCC2CCCO2)cc1` (centres undefined), 29.1 µM [falling, single point]; that for `Nc1ncnc(Nc2ccccn2)c1[N+](=O)[O-]`, 35.5 µM [falling, single point]. In the case of `Cc1ccc(C(=O)Nc2ncc(C)s2)s1`, the concentration at half-maximal activity (AC50) under setting [1] is 14.1 µM [falling, single point].
